Reference: publication PMC12753876

By UniProt entry, the sequences of proteins in these tests, tags left out. Where a name states a change or a piece, a line headed by the entry shows the natural chain unless it says otherwise.
UniProt Q8GYY1: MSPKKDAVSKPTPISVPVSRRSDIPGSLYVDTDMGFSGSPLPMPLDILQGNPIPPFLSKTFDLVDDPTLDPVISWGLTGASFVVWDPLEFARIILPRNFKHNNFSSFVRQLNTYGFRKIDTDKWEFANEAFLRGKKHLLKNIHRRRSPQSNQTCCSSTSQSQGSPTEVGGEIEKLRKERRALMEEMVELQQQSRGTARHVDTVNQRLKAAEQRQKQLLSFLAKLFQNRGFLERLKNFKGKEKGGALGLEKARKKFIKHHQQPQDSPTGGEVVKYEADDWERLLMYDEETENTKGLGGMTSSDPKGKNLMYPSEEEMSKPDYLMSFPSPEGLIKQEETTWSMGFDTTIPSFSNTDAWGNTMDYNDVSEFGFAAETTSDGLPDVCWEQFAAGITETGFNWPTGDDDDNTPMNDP

Molecular target: HsFA3^E173R in pGBKT7 (BD) (Arabidopsis thaliana) (UniProt Q8GYY1)
Assay: two-hybrid; CRY1 as prey in pGADT7 (AD), HsF as bait in pGBKT7 (BD), co-transformed into yeast Y187; liquid beta-galactosidase assay with CPRG, Miller units; not detected (ND) if OD578 <0.01 after 3 h of color development

B1: CRY1^(PHR K332E R335E) in pGADT7 (AD) (domain or fragment, UniProt Q43125 1-508)
chain: MSGSVSGCGSGGCSIVWFRRDLRVEDNPALAAAVRAGPVIALFVWAPEEEGHYHPGRVSRWWLKNSLAQLDSSLRSLGTCLITKRSTDSVASLLDVVKSTGASQIFFNHLYDPLSLVRDHRAKDVLTAQGIAVRSFNADLLYEPWEVTDELGRPFSMFAAFWERCLSMPYDPESPLLPPKKIISGDVSKCVADPLVFEDDSEKGSNALLARAWSPGWSNGDKALTTFINGPLLEYSKNRRKADSATTSFLSPHLHFGEVSVRKVFHLVRIKQVAWANEGNEAGEESVNLFLKSIGLREYSRYISFNHPYSHERPLLGHLKFFPWAVDENYFEAWEQGRTGYPLVDAGMRELWATGWLHDRIRVVVSSFFVKVLQLPWRWGMKYFWDTLLDADLESDALGWQYITGTLPDSREFDRIDNPQFEGYKFDPNGEYVRRWLPELSRLPTDWIHHPWNAPESVLQAAGIELGSNYPLPIVGLDEAKARLHEALSQMWQLEAASRAAIENGSEE
binding: binds

These are yes or no findings as the source states them, for the method shown. A result given as binding can be weak or reduced; the word gives no strength. Sequences can lack the tags named with a protein.
